Experimental data reported in PubChem BioAssay AID588497 (NMMLSC, 2011).
Screen size: about 360,000 compounds; about 780 (0.22%) were called active. The inconclusive results got no clear call from the source; some entries with a clear call stand among them for comparison. Rule as the data show it: active = inhibition above about 35% (passing the limit was not always enough); inconclusive = no clear call, values can overlap the other calls.

Test system: Botulinum neurotoxin type F light chain protease (Clostridium botulinum)
Assay: BoNT/F light chain protease inhibitors, primary screen, biochemical, flow cytometry, MLPCN library (AID 588497); also: plate controls were buffer without enzyme for full effect and enzyme alone for no effect
Conditions: Multiplex microsphere protease cleavage assay, at 10 µM, stronger effect = higher value

Row | SMILES | inhibition
1 | CC(C)NC(=O)c1ccccc1-c1nc(-c2ccccc2Cl)no1 | inconclusive: -9.8%
2 | CCC(C)(C)NC(=O)c1ccc2c(c1)N(CC(=O)N1CCCC1)C(=O)C(C)(C)O2 | inconclusive: 3.9%
3 | O=C(NNC1CC(=O)N(c2ccccc2)C1=O)c1ccccc1Cl (stereo not drawn) | inconclusive: 47%
4 | CC(C)(C)NS(=O)(=O)c1ccc(CCC(=O)NCc2ccccn2)cc1 | inconclusive: 18.3%
5 | CCOc1cc(CN2CCCC(N3CCN(c4ccc(F)cc4)CC3)C2)ccc1OC (stereo not drawn) | inconclusive: 26.6%
6 | COc1ccc(S(=O)(=O)N2CCOC23CCN(S(=O)(=O)c2ccc(F)cc2C)CC3)cc1 | inconclusive: -21.5%
7 | CN(NC(=O)C(C)(C)C)c1nc(-c2ccccc2)nnc1C(F)(F)F | inconclusive: 11.6%
8 | CC(=O)Nc1ccc(/C=C/c2noc(-c3ccccc3O)n2)cc1 | inconclusive: -1.9%
9 | CCSc1ccc(-c2cc(NC=O)c3ncc(-c4cc(OC)c(OC)c(OC)c4)n3c2)cc1 | inactive: 2.9%
10 | CC(Cc1ccccc1)NC(N)=O (stereo not drawn) | inconclusive: -6.8%
11 | CC(=O)N=C1SC2CS(=O)(=O)CC2N1c1cccc(Cl)c1Cl (stereo not drawn) | inconclusive: -28.5%
12 | Nc1c(N=O)c(=O)[nH]c(=O)n1-c1ccccc1 | inconclusive: 21%
13 | CCOC(=O)c1ccc(-c2ccc(C=O)o2)cc1 | inconclusive: 17.4%
14 | COc1ccc(-c2cccc(C(=O)N3CCOCC3)c2)cc1 | inconclusive: 3.4%
15 | O=C(N/N=C/c1ccc([N+](=O)[O-])cc1)c1cc2ccccc2o1 | inconclusive: -78.8%
16 | Cc1cc(C(=O)N/N=C/c2ccc([N+](=O)[O-])cc2)c2ccccc2n1 | inconclusive: 60.8%
17 | CC(C)(C)c1ccc(Oc2ccc(NC(=O)c3ccccc3C(=O)O)cn2)cc1 | active: 47.5%
18 | CCc1nnc(NC(=O)COc2ccccc2[N+](=O)[O-])s1 | inconclusive: -95.2%
19 | COc1ccc(CN2CCN(C(=O)CC(C)C)CC2)cc1 | inconclusive: -6.7%
20 | Nc1ccn([C@@H]2O[C@H](C(=O)N3CCN(Cc4ccccn4)CC3)[C@@H](O)[C@H]2O)c(=O)n1 | inactive: -3%

In the list so far, these have a Cl atom:
Row | SMILES | inhibition
1 | CC(C)NC(=O)c1ccccc1-c1nc(-c2ccccc2Cl)no1 | inconclusive: -9.8%
3 | O=C(NNC1CC(=O)N(c2ccccc2)C1=O)c1ccccc1Cl (stereo not drawn) | inconclusive: 47%
11 | CC(=O)N=C1SC2CS(=O)(=O)CC2N1c1cccc(Cl)c1Cl (stereo not drawn) | inconclusive: -28.5%

Following part:

Row | SMILES | inhibition
21 | NS(=O)(=O)c1ccc(NC(NC(=O)c2cccnc2)C(Cl)(Cl)Cl)cc1 (stereo not drawn) | inconclusive: 8%
22 | O=C(Nc1nc2c(s1)CCCC2)c1cc2n(n1)C(C(F)(F)F)CC(C1CC1)N2 (stereo not drawn) | inconclusive: -9.4%
23 | Cn1cnnc1SCC(=O)Nc1ccc(F)cc1 | inconclusive: -18.5%
24 | CN(NC(=O)c1ccc(Cl)cc1)c1ncc(C(F)(F)F)cc1Cl | inconclusive: 26.2%
25 | COc1cc(/C=N\NC(=O)c2ccc(=O)[nH]n2)cc(OC)c1OC | inconclusive: -0.9%
26 | COC(=O)COc1ccc(/C=C2/SC(=O)N(CC(=O)N3CCCC3)C2=O)cc1Br | inactive: -3.3%
27 | C=CCN(CC=C)C(=O)C1CCN(Cc2ccc(OCc3ccccc3)cc2)CC1 | inconclusive: -2%
28 | Cc1ccc(Sc2ncccc2O)cc1 | inconclusive: 9%
29 | CCC(C)c1ccc(OCc2ccc(C(=O)OC)o2)cc1 (stereo not drawn) | inconclusive: 0.8%
30 | Cc1cc(N/N=C2/CCCc3ccccc32)nc2ccccc12 | inactive: -0.5%
31 | Cc1ccc(NS(=O)(=O)c2ccc3c(c2)oc(=O)n3C)cc1 | inconclusive: 9.2%
32 | CCOC(=O)c1c(-c2ccc(C)cc2)csc1/N=C(\C)C1=C(O)c2ccccc2C1=O | inconclusive: -22.7%
33 | COC(=O)c1ccc(C2NC(=S)N(c3ccccc3)C(C)=C2C(=O)Nc2ccccc2OC)cc1 (stereo not drawn) | inconclusive: -10.8%
34 | O=C(COc1ccc(F)cc1Cl)Nc1cccc(S(=O)(=O)N2CCCCCC2)c1 | inconclusive: -6.4%
35 | CCn1c(C(=O)O)c(CC(=O)Nc2ccccc2OC)c2ccccc21 | inconclusive: -13.8%
36 | COc1cccc(C(C)(O)c2nc(-c3ccc(F)cc3OC)cs2)c1 (stereo not drawn) | inactive: -5.7%
37 | O=C(Nc1cc(Br)c(O)c(Br)c1)c1cccc(NC(=O)c2ccco2)c1 | inconclusive: 4.2%
38 | CC(C)(C)c1ccc(NC(=O)Nc2ccc3ccccc3n2)cc1 | inconclusive: -41.1%
39 | Cc1cc(C)c(N=C2SCC(=O)N2Cc2ccco2)c(C)c1 | inconclusive: 6.6%
40 | Cc1nn2c(Nc3ccc(F)cc3)c3c(nc2c1-c1ccccc1)CCC3 | inactive: -8.1%

Retrieved by compound from the list above:
Row | SMILES | inhibition
24 | CN(NC(=O)c1ccc(Cl)cc1)c1ncc(C(F)(F)F)cc1Cl | inconclusive: 26.2%
25 | COc1cc(/C=N\NC(=O)c2ccc(=O)[nH]n2)cc(OC)c1OC | inconclusive: -0.9%

Additional structures

Row | SMILES | inhibition
41 | O=C(Nc1ncccc1O)c1ccc(Oc2ccccc2)cc1 | inactive: 7.5%
42 | Cc1cccc(/C=N/NC(=O)Cn2nnnc2N)n1 | inconclusive: 16.3%
43 | Cn1cnc(S(=O)(=O)Nc2cc(C(F)(F)F)ccc2N2CCOCC2)c1 | inconclusive: 19.5%
44 | C=CCn1c(SC2CCOC2=O)nc2sc(C)c(C)c2c1=O (stereo not drawn) | inconclusive: 0.5%
45 | O=C1Cc2cc(S(=O)(=O)N3CCN(c4cccc(Cl)c4)CC3)ccc2N1 | inactive: 4.1%
46 | CCC(CC)NCCOC(=O)c1ccc([N+](=O)[O-])cc1 | inconclusive: -17.1%
47 | CCCCCn1c(N2CCCC2)nc2c1c(=O)n(C)c(=O)n2C | inconclusive: -0.5%
48 | COc1ccc(N2C(=O)c3ccccc3C2O)cc1 (stereo not drawn) | inconclusive: -7.2%
49 | COc1ccc(CC(=O)NC2CC(C)(C)NC(C)(C)C2)cc1OC | inconclusive: 4.2%
50 | O=c1c2ccccc2ncn1Cc1ccc(Cl)c(Cl)c1 | inconclusive: 8.3%
51 | NC(=S)Nc1ccccc1Br | inconclusive: -20%
52 | CSCC[C@H](NC(=O)[C@H](Cc1ccccc1)n1c(=O)[nH]c2ccccc2c1=O)C(=O)NCC1CCC(C(=O)O)CC1 (stereo partly drawn) | inactive: 12.1%
53 | COc1cccc(NC(=O)CN(C)C(=O)c2cccc(S(=O)(=O)Nc3ccccc3OC)c2)c1 | inactive: -6.5%
54 | O=C(c1cc2cc(Cl)ccc2oc1=O)N1CCOCC1 | inconclusive: -31.2%
55 | CC(=O)Nc1cccc(Cl)c1C(=O)O | inconclusive: -2.1%
56 | O=C(O)Cn1cc(/C=N/NC(=O)c2cc3cc(Br)ccc3o2)c2ccccc21 | inactive: -2%
57 | CCCSc1nc(C)cc(=O)[nH]1 | inconclusive: -21.6%
58 | CCCn1c(SCC(=O)Nc2cc(C(=O)O)ccc2C)nc2sc3c(c2c1=O)CCC3 | inactive: -2.7%
